Measured values published in patent US20250332299A1, “COMPOUND TARGETING SSTR2, PREPARATION METHOD THEREFOR AND USE THEREOF” (YANTAI LANNACHENG BIOTECHNOLOGY CO., LTD., priority 2022, published 2025).
Part of at least one peptide drawing is inferred or uncertain, most often the ends.

Key:
[1] = In vitro stability in glutathione solution (radio-HPLC); type: in vitro ADME; settings: 2 h
AR42J tumor cells = experiment: Cellular uptake experiment in AR42J tumor cells, with blocking; type: cell-based

| Compound | radiochemical purity [1] | cellular uptake (AR42J tumor cells; 37 kBq, 37° C., 24 h incubation) [%] | cellular uptake with unlabeled TATE-EB-01 as inhibitor (AR42J tumor cells; blocking with unlabeled TATE-EB-01 (50 μg/mL)) [%] |
| --- | --- | --- | --- |
| Cc1cc(-c2ccc(NC(=O)[C@H](CCCCNC(=O)CCN3C(=O)CC(SCCC(=O)N[C@H](Cc4ccccc4)C(=O)N[C@H]4CSSC[C@@H](C(=O)N[C@H](C(=O)O)[C@@H](C)O)NC(=O)[C@H]([C@@H](C)O)NC(=O)[C@H](CCCCN)NC(=O)[C@@H](Cc5c[nH]c6ccccc56)NC(=O)[C@H](Cc5ccc(O)cc5)NC4=O)C3=O)NC(=O)CN3CCN(CC(=O)O)CCN(CC(=O)O)CCN(CC(=O)O)CC3)c(C)c2)ccc1N=Nc1ccc2c(S(=O)(=O)O)cc(S(=O)(=O)O)c(N)c2c1O (single isomer, unassigned) [^68Ga-EB-TATE, metal not drawn, reference compound] | obviously reduced | – | – |
| Cc1cc(-c2ccc(NC(=O)[C@H](CCCCNC(=O)CCOCCOCCC(=O)N[C@H](Cc3ccccc3)C(=O)N[C@H]3CSSC[C@@H](C(=O)N[C@H](C(=O)O)[C@@H](C)O)NC(=O)[C@H]([C@@H](C)O)NC(=O)[C@H](CCCCN)NC(=O)[C@@H](Cc4c[nH]c5ccccc45)NC(=O)[C@H](Cc4ccc(O)cc4)NC3=O)NC(=O)CN3CCN(CC(=O)O)CCN(CC(=O)O)CCN(CC(=O)O)CC3)c(C)c2)ccc1N=Nc1ccc2c(S(=O)(=O)O)cc(S(=O)(=O)O)c(N)c2c1O [^68Ga-TATE-EB-01, metal not drawn] | greater than 99% | – | – |
| Cc1cc(-c2ccc(NC(=O)[C@H](CCCCNC(=O)CCOCCOCCC(=O)N[C@H](Cc3ccccc3)C(=O)N[C@H]3CSSC[C@@H](C(=O)N[C@H](C(=O)O)[C@@H](C)O)NC(=O)[C@H]([C@@H](C)O)NC(=O)[C@H](CCCCN)NC(=O)[C@@H](Cc4c[nH]c5ccccc45)NC(=O)[C@H](Cc4ccc(O)cc4)NC3=O)NC(=O)CN3CCN(CC(=O)O)CCN(CC(=O)O)CCN(CC(=O)O)CC3)c(C)c2)ccc1N=Nc1ccc2c(S(=O)(=O)O)cc(S(=O)(=O)O)c(N)c2c1O [^177Lu-TATE-EB-01, metal not drawn] | – | 36.96±1.60 | 3.37±0.17 |
